PubChem BioAssay AID2685 (National Center for Advancing Translational Sciences (NCATS), 2010)
The whole screen tested about 320,000 compounds, of which about 2,100 (0.66%) were called active. The call rests on the fitted dose curve; in most records, active means well fitted inhibition curve with a large enough effect in the signal ratio, with a control signal flat (not every such curve was filed as active); inconclusive means small, poorly fitted or top-dose-only effect, or effect the other way, or a change in a side signal; inactive means flat fitted curve, though single readings scatter; the % refers to the signal ratio. Inconclusive means that the source gave no clear call. A potency beside an inconclusive call is a rough fit, not a confirmed value.

Test: qHTS Assay for Lipid Storage Modulators in Drosophila S3 Cells
Conditions: BODIPY lipid droplet fluorescence, 18-24 h, cells fed with added oleic acid; lipid storage change, negative = inhibition: at 46.1 µM (top of the series) unless noted
Outline: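 Drosophila S3 cells got compounds at several concentrations plus oleic acid (400 uM solution). Laser-scanning cytometry with 488 nm excitation read lipid droplets at 500-530 nm and cells at 575-640 nm. Percent activity was relative to 20 uM Triacsin C.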
On the % scale 0 is the no-effect control and ±100 the full control effect; potency means the concentration at half of the fitted maximal effect.

Lipid storage change, negative = inhibition, inconclusive:
Cc1ccccc1CNC(=O)CN(c1ccccc1Cl)S(C)(=O)=O 5.7%
Cc1ccc(S(=O)(=O)N/N=C\c2ccccc2OCc2ccccc2)cc1 16.8%
Cc1cc(C)cc(N(CC(=O)NC2CCCCC2)C(=O)CCC(=O)Nc2cc(C)ccn2)c1 -88.7%
O=C(Cn1cc[n+](Cc2ccccc2)c1)c1ccc([N+](=O)[O-])cc1 -14.9%
Cc1ccc(-c2nc(SCC(=O)N(C)c3c(N)n(Cc4ccccc4)c(=O)[nH]c3=O)n[nH]2)cc1 -0.967%
COC(=O)c1cccc(NC(=O)CN2CCc3ccccc3C2)c1 27.5%
COc1ccc(COC(=O)c2nc3nc(C)cc(C)n3n2)cc1F -2.37%
O=C(NCc1ccc(C(F)(F)F)cc1)C1CC(c2c(Cl)cccc2Cl)=NO1 (stereo not given) -4.08%
COc1cccc(NC(=O)Nc2ccccc2C(N)=O)c1 47.4%
CN(C)CCNC(=O)Nc1ccc([N+](=O)[O-])cc1 -17.5% [at 9.22 µM]
CCCc1[nH]nc2c1C(Cc1ccccc1)C(C#N)=C(N)O2 (stereo not given) -32.8%
COC(=O)C/C=C/[C@@H](C)[C@@H](/C=N/O[C@H](C)c1cn([C@@H]2COC[C@H]2O)nn1)NS(=O)(=O)c1ccc(C)cc1 0.747%
COc1ccc(C(C)=O)cc1COC(=O)CCNS(=O)(=O)c1ccc(C(C)=O)cc1 6.34%
COC(=O)c1ccccc1NC(=S)NC(C)=O 30.2%

Potency, inconclusive:
O=C(Cc1ccc(Cl)cc1)SCc1ccccc1 0.082 µM [activator, single point]
Cc1ccccc1C(=O)N1CCC(C(=O)O)CC1 0.291 µM [falling, full curve, poor fit]
COc1cccc(CN(C)C(=O)CSCC(=O)Nc2cccc(C)c2)c1OC 5.17 µM [falling, partial curve, poor fit]
Cc1cc(NC(=O)COC(=O)[C@H](Cc2c[nH]c3ccccc23)NC(=O)c2ccc(F)cc2)no1 29.1 µM [falling, partial curve, poor fit]
CCc1ccc(NC(=O)C(C)Sc2ccc(S(=O)(=O)N3CCN(C)CC3)cn2)cc1 (stereo not given) 7.31 µM [falling, single point]
Cc1cc(C)cc(CC(CC(=O)Nc2ccc(Cl)cc2)C(=O)O)c1 (stereo not given) 29.1 µM [activator, single point]

An excerpt from above in order of molecular weight, low to high:
Potency, inconclusive:
Cc1cc(C)cc(CC(CC(=O)Nc2ccc(Cl)cc2)C(=O)O)c1 (stereo not given) 29.1 µM [activator, single point]
CCc1ccc(NC(=O)C(C)Sc2ccc(S(=O)(=O)N3CCN(C)CC3)cn2)cc1 (stereo not given) 7.31 µM [falling, single point]
Cc1cc(NC(=O)COC(=O)[C@H](Cc2c[nH]c3ccccc23)NC(=O)c2ccc(F)cc2)no1 29.1 µM [falling, partial curve, poor fit]
